Experimental data from publication PMC9853512 (RSC Advances, 2023).

Assay: Cytotoxicity MTT assay in HepaRG cells
Format: cell-based
Conditions: human

For O=C1OCCN1N=Cc1ccc([N+](=O)[O-])o1 [FZD, 3-(5-nitrofurfurylideneamino)-2-oxazolidinone], the IC50 at 24 h was over 100 µM.
